The list shows a part of the results. Shown are side measurements of this screen, not its main read-out; they come without a call. Compounds called inactive in the main read-out are mostly missing here. The note in brackets gives the kind of curve behind each potency; many fits are weak.

One may read the AC50 as the midpoint of the concentration-response curve, whichever way the signal moves. The low end stands for greater potency, the high end for weaker potency.

The nature of the experiment: qHTS Assay for Lipid Storage Modulators in Drosophila S3 Cells.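 As to cell number change: cells counted by Cell Tracker Red CMTPX staining in the red channel.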 The following applies: BODIPY lipid droplet fluorescence, 18-24 h; for cell number change: measured here: cell count max response, cells fed with added oleic acid. An outline of the steps:
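Drosophila S3 cells loaded with oleic acid (400 uM, as added) and compounds at several concentrations; lipid droplets imaged by 488-nm laser-scanning cytometry, 500–530 nm intensity and object ratio to cell channel. Percent activity normalized to 20 uM Triacsin C.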
On the technique in general: Quantitative high-throughput screening tests each substance at several concentrations.

[1] abbreviates: measured here: cell number channel AC50, cells fed with added oleic acid.
The mark [2] stands for this setting: measured here: lipid fluorescence (Fed channel) AC50, cells fed with added oleic acid.

In the case of `O=[N+]([O-])c1cccc(-c2ccc(/C=N/Nc3nc(N4CCCCC4)nc(N4CCCCC4)n3)o2)c1`, the cell number change is -32.9%. For the same molecule, the AC50 under setting [1] was 20.6 µM [falling, single point].

Take `CCc1nc2ccccc2c(C(=O)OCC(=O)NCCCN2CCCC2=O)c1C`: the AC50 under setting [1] was 0.00517 µM [falling, full curve, poor fit].

Regarding `Cc1cc(N2C(=O)C(O)=C(C(=O)c3ccc(C)o3)C2c2ccc(OCc3ccccc3)cc2)no1` (stereo not drawn), the cell number change was determined as 71.9%. Under setting [1], the half-maximal activity concentration (AC50) was 16.4 µM [rising, partial curve]. Also, under setting [2], the AC50 is 18.4 µM [rising, partial curve].

On to `CC(=O)c1sc2nc(SCC(=O)N3CCCCC3)[nH]c(=O)c2c1C`, for which the cell number change is -0.0674%. Moreover, the AC50 under setting [2] is 5.8 µM [rising, partial curve].

With `COc1cccc(/C=C/C(=C2/C(=O)N(c3ccccc3)N=C2C)c2ccccc2)c1OC`, the AC50 was 6.51 µM [falling, single point] under setting [1] and 3.66 µM [falling, single point] under setting [2].

As to `Cc1cc(C)n(S(=O)(=O)c2ccc(Cl)c(Cl)c2Cl)n1`, the cell number change came to 56.4%. The AC50 under setting [1] is 5.17 µM [rising, partial curve]. In addition, under setting [2], the AC50 is 7.31 µM [rising, partial curve].

On to `COc1ccc(/C=N/OCC(=O)NCC(C)C)c(OC)c1`, for which the cell number change came out at 5.68%. Also, under setting [1], the AC50 was 1.84 µM [falling, partial curve]. Besides, the AC50 under setting [2] is 1.46 µM [falling, partial curve].

For `CC(C)(C)Nc1nc(Cl)nc(NCCN2CCOCC2)n1`, the cell number change stood at 24.4%. The AC50 under setting [2] was 6.51 µM [rising, partial curve, poor fit].

On to `CCOc1ccc2nc(N/C(N)=N/S(C)(=O)=O)nc(C)c2c1`, for which the cell number change worked out at 3.21%. Further, the AC50 under setting [2] is 4.11 µM [falling, full curve, poor fit].

Take `Oc1ccc(/C=N/Nc2nc(N3CCCC3)nc(N3CCCC3)n2)cc1O`: the cell number change was -10.7%.

Regarding `CCOc1ccc(NC(=O)CSC2=NCCN2)cc1`, the cell number change worked out at 16.7%. The AC50 under setting [1] was 4.61 µM [falling, single point].

As for `O=C(CN1CCN(S(=O)(=O)N2CCCCC2)CC1)Nc1cc(Cl)ccc1Cl`, the cell number change is 32%. In addition, under setting [1], the concentration at half-maximal activity (AC50) was 5.8 µM [rising, full curve, poor fit].

For the molecule `O=C(CNC(=S)N(Cc1ccccc1F)C1CCCCC1)NCCCN1CCOCC1`, the cell number change is -67.7%. Also, the concentration at half-maximal activity (AC50) under setting [1] was 0.82 µM [falling, full curve]. For the same molecule, under setting [2], the AC50 is 13 µM [falling, partial curve, poor fit].

Regarding `Cc1ccc(C=C2C(=O)c3ccccc3C2=O)s1`, under setting [1], the AC50 was 6.51 µM [rising, single point].

With `N#Cc1sc2nc3c(c(-c4ccco4)c2c1N)CCCC3`, the cell number change is 88.8%. For the same molecule, the AC50 under setting [1] was 29.1 µM [rising, single point]. In addition, under setting [2], the AC50 was 2.59 µM [rising, single point].

For the molecule `O=C(CN1C(=O)NC2(CCc3ccccc32)C1=O)c1ccc(Cl)cc1` (stereo not drawn), the cell number change is 17.4%. Under setting [2], the AC50 was 32.6 µM [rising, single point].

Consider `O=C(Nc1ccc(C(F)(F)F)cc1)N1CCN(c2ccnc3cc(Cl)ccc23)CC1`, for which the cell number change came to 12%. Under setting [1], the AC50 was 0.731 µM [rising, single point]. Under setting [2], the AC50 is 8.2 µM [falling, single point].

With `O=[N+]([O-])c1ccc(CNCc2cc(Cl)ccc2O)cc1`, the cell number change is -40%. Also, the AC50 under setting [1] was 9.2 µM [falling, partial curve]. Under setting [2], the AC50 was 0.164 µM [rising, full curve].

With `Cc1cc(C(=O)N2CCN(c3cccc(Cl)c3)CC2)c(C)o1`, the cell number change is 105%. Also, the AC50 under setting [1] is 14.6 µM [rising, partial curve]. Besides, the half-maximal activity concentration (AC50) under setting [2] is 1.3 µM [rising, full curve].

Consider `Cn1c(NC(=O)Cc2ccc(F)cc2)cc(=O)n(C)c1=O`, for which the cell number change was found to be 54.1%. For the same molecule, under setting [1], the concentration at half-maximal activity (AC50) was 29.1 µM [rising, single point].

Turning to `Cc1ccc2c(c1)c(-c1csc(N)n1)c(C)n2C`, the cell number change is 31.1%. Under setting [1], the AC50 was 0.184 µM [rising, full curve, poor fit]. For the same molecule, the AC50 under setting [2] is 29.1 µM [rising, single point].

`CNC(=O)c1ccsc1NC(=O)C1CCCN1S(=O)(=O)c1cccs1` (stereo not drawn): the cell number change was 78.3%. Under setting [1], the AC50 was 1.64 µM [rising, full curve].

Consider `CC(C)(C)NC(=O)CN(C(=O)Cn1nnc(-c2ccc(Cl)cc2)n1)C1CCN(Cc2ccccc2)CC1`, for which the cell number change was -24.5%. Moreover, under setting [2], the AC50 was 29.1 µM [falling, single point].

On to `Cc1ccc(C)c(NC(=O)CSc2nnc([C@@H](N)Cc3ccccc3)o2)c1`, for which the AC50 under setting [2] was 0.0058 µM [rising, full curve].

`CC1(C)C(=O)OC(/C=C\c2cccc([N+](=O)[O-])c2)C(C)(C)C1=O` (stereo not drawn): the cell number change is 6.62%.

On to `COc1ccccc1CNC(=O)c1cnn2c(C(F)F)cc(C)nc12`, for which, under setting [2], the concentration at half-maximal activity (AC50) was 14.6 µM [rising, partial curve].

For the molecule `Cn1c(CSc2ncccn2)nnc1SCC(=O)N1CCCC1`, the cell number change worked out at 5.8%. The AC50 under setting [1] is 0.13 µM [rising, full curve, poor fit].

`O=C(O)c1ccc(CSc2nnc(-c3ccc(Cl)cc3)o2)cc1`: the cell number change was determined as 12.2%. Further, the AC50 under setting [2] was 0.0651 µM [rising, full curve, poor fit].

`CC1CN(C(=O)CSc2ncnc3sccc23)CC(C)O1` (stereo not drawn): the cell number change is -0.334%. Under setting [2], the AC50 was 14.6 µM [rising, single point].

Regarding `COc1ccc(NC(=O)COC(=O)C2C3CC4OC(=O)C2C4C3)cc1` (stereo not drawn), the cell number change was -8.97%. Besides, the AC50 under setting [2] was 0.184 µM [rising, full curve, poor fit].

Consider `Cc1ccc(C)n1/N=C1/NC(=O)CS1`, for which the cell number change worked out at 8.08%.

For `C#CC[N+](C)(C)CCCCCCCC`, the cell number change is -11.4%. The half-maximal activity concentration (AC50) under setting [1] is 6.51 µM [rising, partial curve, poor fit].

On to `COc1cccc(/C=N/NC(=O)c2cc3cc([N+](=O)[O-])ccc3s2)c1O`, for which the cell number change was -73.7%. Besides, the AC50 under setting [1] is 29.1 µM [falling, single point].

With `O=C1C(=C(O)c2ccccc2)C(=O)c2ccccc21`, the cell number change was -27.5%. Besides, the AC50 under setting [2] was 29.1 µM [falling, single point].

`CCN(C(=O)Cn1c(=O)oc2cc(S(=O)(=O)N3CCCC3)ccc21)c1ccc(OC)cc1`: the cell number change stood at 6.89%. The AC50 under setting [2] is 6.51 µM [rising, single point].

`O=C1C2=C(Nc3ccccc3SC2c2ccco2)c2ccccc21` (stereo not drawn): the cell number change is -33.4%. Moreover, under setting [1], the AC50 is 29.1 µM [falling, single point].

As for `Cc1ccc2[nH]c(SCC(=O)N3CCOCC3)nc2c1C`, the cell number change was 38.5%. In addition, the AC50 under setting [1] is 10.3 µM [rising, partial curve, poor fit]. The AC50 under setting [2] is 6.51 µM [rising, single point].

In the case of `O=C(N/N=C/C(Cl)=C\c1ccccc1)c1cnccn1`, the cell number change was determined as 23.1%.

Regarding `c1ccc(CCN2CCN=C2Nc2ccccc2)cc1`, the cell number change was -11.7%. Moreover, the AC50 under setting [2] is 0.461 µM [falling, full curve].

`COC(=O)c1ccc(C23CC4(C2)[C@H](CN(Cc2cccnc2)[C@@H]4c2ccccc2)C3c2ccc(Cl)nc2)cc1` (stereo partly drawn): the cell number change is 12.3%. The AC50 under setting [2] is 2.59 µM [rising, full curve, poor fit].

In the case of `CC(C)c1ccc(S(=O)(=O)N2CCN(C(=O)c3ccc(N4CCCC4)c([N+](=O)[O-])c3)CC2)cc1`, the cell number change came out at 10.3%. The AC50 under setting [2] is 0.58 µM [falling, single point].

Turning to `CCc1ccc(N(CC(=O)NC)S(C)(=O)=O)cc1`, the cell number change is -14.8%. In addition, the AC50 under setting [2] was 14.6 µM [falling, partial curve].

For `CCOc1ncccc1C(=O)OCC(=O)NC1CCCCCC1`, under setting [1], the AC50 was 0.231 µM [rising, full curve].

For `CC(C)N(Cc1ccccc1)C(=O)COC(=O)c1cnccn1`, the cell number change was -46%. Further, the AC50 under setting [1] is 0.206 µM [falling, full curve, poor fit].

As to `O=C1CC(C(=O)N2CCN(c3ccccc3O)CC2)CN1Cc1ccccc1` (stereo not drawn), the cell number change is -9.93%. The AC50 under setting [2] was 10.3 µM [rising, partial curve].

Consider `Nc1ccc2nc(CCc3ccccc3)[nH]c2c1`, for which the cell number change was 9.5%.

As for `CCN(CC)C(=O)CSc1nnc([C@@H](N)Cc2ccccc2)o1`, the cell number change was -19.3%. The AC50 under setting [2] was 3.66 µM [falling, single point].

Regarding `COc1ccc(Cc2nc3ccc(C(=O)NCCn4cccn4)cc3o2)cc1`, the cell number change stood at 19%. For the same molecule, the AC50 under setting [2] was 29.1 µM [rising, single point].

Consider `COc1ccc(NC(=S)Nc2cccc(Cl)c2Cl)cc1OC`, for which the AC50 under setting [1] is 2.06 µM [rising, partial curve, poor fit].

With `Cc1ccc(CNC(=O)CS(=O)Cc2nc(-c3ccccc3C)oc2C)cc1` (stereo not drawn), the cell number change turned out to be 79.2%. For the same molecule, the AC50 under setting [1] was 20.6 µM [rising, single point]. Moreover, the AC50 under setting [2] was 0.82 µM [rising, single point].

Consider `CCn1cc(S(=O)(=O)CC(=O)Nc2cc(C)on2)c2ccccc21`, for which the cell number change was -16%. Further, the AC50 under setting [2] is 0.82 µM [falling, full curve, poor fit].

For the molecule `Cc1ccccc1NC(=O)c1cc(S(=O)(=O)N2CCOCC2)cs1`, the cell number change is -5.36%. Under setting [2], the AC50 is 1.3 µM [rising, partial curve].

For the molecule `Cc1cccc(COc2ccccc2/C=N/Nc2ccc([N+](=O)[O-])cc2)c1`, the cell number change amounted to 11.9%. Also, the AC50 under setting [2] is 6.51 µM [rising, single point].

Take `CC(CCc1ccccc1)NC(=O)CNC(=O)c1ccccc1Br` (stereo not drawn): the cell number change is -15.1%. Also, the concentration at half-maximal activity (AC50) under setting [2] is 0.58 µM [rising, single point].

With `COc1cccc(CNC(=O)CCN2C(=S)NC(C)(C)CC2C)c1` (stereo not drawn), the cell number change was -32.4%. Moreover, the AC50 under setting [1] was 32.6 µM [falling, single point]. Under setting [2], the AC50 was 29.1 µM [falling, single point].

`COCCNC(=O)/C(C#N)=C/C(C)=C/c1ccccc1`: the cell number change came out at 20%. Moreover, under setting [2], the AC50 was 23.1 µM [falling, single point].

As to `CC1Cc2ccccc2N1C1=CC(=O)CCC1` (stereo not drawn), the cell number change turned out to be 34.3%.

For `CCCc1nc(N)c(C#N)c(-c2cccnc2)c1CC`, the cell number change was found to be 2.04%. Besides, the AC50 under setting [2] is 0.116 µM [rising, full curve, poor fit].

Regarding `O=c1c2[nH]c3ccccc3c2ncn1Cc1cccnc1`, the cell number change is -12.9%. Under setting [2], the concentration at half-maximal activity (AC50) was 0.731 µM [falling, single point].
